# In article PMC8888484, “Ubr1-induced selective endophagy/autophagy protects against the endosomal and Ca^2+-induced proteostasis disease stress” (Cellular and Molecular Life Sciences: CMLS, 2022):
# By UniProt entry, the sequences of proteins in these tests, tags left out.
# UniProt Q9UNE7: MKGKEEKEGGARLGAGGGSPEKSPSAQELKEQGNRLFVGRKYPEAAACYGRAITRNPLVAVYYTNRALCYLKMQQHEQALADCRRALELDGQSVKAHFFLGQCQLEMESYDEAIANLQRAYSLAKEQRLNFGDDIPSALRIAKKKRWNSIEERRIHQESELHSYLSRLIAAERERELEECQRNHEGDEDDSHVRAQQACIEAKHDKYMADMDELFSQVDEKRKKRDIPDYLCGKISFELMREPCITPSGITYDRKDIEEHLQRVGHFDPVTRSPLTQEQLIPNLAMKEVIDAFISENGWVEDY
# UniProt P11142: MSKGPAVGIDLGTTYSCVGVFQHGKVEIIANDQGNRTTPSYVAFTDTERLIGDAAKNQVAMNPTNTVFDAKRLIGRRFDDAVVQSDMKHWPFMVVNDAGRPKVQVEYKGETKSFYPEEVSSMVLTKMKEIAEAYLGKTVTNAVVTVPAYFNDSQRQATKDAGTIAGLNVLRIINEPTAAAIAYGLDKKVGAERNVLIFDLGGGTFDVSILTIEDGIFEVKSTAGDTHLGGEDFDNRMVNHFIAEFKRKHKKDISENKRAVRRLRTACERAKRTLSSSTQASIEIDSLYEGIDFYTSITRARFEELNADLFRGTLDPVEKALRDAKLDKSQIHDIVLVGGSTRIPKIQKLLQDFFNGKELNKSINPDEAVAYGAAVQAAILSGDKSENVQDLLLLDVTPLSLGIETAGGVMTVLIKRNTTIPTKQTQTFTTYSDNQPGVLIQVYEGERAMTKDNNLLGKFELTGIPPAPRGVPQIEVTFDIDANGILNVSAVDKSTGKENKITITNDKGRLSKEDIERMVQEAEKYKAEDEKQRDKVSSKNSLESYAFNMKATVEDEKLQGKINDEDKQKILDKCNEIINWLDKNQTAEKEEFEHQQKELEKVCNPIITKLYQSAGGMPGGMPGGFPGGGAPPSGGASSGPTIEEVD
# UniProt P25685: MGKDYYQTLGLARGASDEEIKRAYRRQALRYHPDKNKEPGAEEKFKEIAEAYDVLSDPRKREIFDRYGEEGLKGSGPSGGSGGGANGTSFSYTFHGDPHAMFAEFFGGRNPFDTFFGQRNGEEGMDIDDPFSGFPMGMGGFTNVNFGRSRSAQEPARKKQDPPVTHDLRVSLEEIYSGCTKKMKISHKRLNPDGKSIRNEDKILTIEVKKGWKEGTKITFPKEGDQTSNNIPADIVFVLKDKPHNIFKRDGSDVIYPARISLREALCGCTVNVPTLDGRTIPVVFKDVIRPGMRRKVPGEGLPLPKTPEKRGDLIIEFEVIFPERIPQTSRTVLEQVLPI
# UniProt P08238: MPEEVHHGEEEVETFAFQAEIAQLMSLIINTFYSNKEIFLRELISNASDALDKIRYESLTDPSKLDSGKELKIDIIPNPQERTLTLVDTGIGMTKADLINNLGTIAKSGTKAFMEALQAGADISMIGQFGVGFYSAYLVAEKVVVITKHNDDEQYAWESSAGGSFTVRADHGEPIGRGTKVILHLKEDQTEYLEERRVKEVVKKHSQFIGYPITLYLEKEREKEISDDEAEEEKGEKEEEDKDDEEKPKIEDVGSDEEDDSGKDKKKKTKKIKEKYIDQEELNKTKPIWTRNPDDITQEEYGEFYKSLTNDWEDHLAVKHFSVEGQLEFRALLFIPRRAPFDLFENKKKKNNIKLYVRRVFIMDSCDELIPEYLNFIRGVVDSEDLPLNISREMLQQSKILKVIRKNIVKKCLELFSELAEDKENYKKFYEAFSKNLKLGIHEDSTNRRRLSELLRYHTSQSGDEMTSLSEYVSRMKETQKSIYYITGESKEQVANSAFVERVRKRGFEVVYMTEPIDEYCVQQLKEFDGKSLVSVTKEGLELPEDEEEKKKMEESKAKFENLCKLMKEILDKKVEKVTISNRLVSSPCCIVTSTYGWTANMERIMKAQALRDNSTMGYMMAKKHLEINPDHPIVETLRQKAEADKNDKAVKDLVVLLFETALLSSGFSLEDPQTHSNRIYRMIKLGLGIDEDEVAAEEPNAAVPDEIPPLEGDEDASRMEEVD
# These are yes or no findings as the source states them, for the method shown. Binding seen in cells or lysates may run through a third protein. Some entries that bind do so weakly or less than the wild type. For part of these data: Where a sequence is shown, tags or fusion partners need not be part of it.
# T1: 2HA-MLC1-P92S (human (by the printed GeneID 23209; the paper does not say the species in words)) (UniProt Q15049)
# T1 sequence: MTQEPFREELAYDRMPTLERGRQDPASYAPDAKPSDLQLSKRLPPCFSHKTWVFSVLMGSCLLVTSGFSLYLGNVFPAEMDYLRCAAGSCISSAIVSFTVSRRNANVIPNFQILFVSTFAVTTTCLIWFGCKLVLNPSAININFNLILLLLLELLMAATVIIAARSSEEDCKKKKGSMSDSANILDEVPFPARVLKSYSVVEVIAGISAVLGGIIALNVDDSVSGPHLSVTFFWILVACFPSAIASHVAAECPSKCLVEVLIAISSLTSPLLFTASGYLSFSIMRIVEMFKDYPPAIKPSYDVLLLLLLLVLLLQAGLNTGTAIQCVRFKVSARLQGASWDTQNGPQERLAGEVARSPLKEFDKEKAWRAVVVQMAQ
# T2: 2HA-MLC1-C326R (human (by the printed GeneID 23209; the paper does not say the species in words)) (UniProt Q15049)
# T2 sequence: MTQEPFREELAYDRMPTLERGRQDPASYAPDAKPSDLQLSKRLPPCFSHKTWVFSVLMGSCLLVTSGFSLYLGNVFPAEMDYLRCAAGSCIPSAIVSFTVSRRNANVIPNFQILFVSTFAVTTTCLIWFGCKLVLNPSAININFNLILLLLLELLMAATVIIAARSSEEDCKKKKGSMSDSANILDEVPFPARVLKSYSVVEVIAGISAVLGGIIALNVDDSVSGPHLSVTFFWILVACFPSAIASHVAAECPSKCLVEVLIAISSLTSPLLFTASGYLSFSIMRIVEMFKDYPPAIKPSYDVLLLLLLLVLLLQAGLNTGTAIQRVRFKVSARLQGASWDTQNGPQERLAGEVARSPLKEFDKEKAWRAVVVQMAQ
# T3: 2HA-MLC1-S280L (human (by the printed GeneID 23209; the paper does not say the species in words)) (UniProt Q15049)
# T3 sequence: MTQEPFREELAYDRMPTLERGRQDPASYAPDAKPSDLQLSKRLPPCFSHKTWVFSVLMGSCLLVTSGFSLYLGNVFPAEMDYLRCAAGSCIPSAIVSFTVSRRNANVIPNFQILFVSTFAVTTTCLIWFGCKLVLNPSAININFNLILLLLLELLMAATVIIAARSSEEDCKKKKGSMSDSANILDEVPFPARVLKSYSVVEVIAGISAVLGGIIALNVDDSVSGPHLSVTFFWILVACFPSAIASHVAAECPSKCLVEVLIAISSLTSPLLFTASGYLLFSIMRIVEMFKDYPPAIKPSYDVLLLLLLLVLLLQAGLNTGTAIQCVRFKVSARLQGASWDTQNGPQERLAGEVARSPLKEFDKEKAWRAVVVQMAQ
# T4: GlialCAM (glial cell adhesion molecule), Flag-tagged (UniProt Q14CZ8)
# T4 sequence: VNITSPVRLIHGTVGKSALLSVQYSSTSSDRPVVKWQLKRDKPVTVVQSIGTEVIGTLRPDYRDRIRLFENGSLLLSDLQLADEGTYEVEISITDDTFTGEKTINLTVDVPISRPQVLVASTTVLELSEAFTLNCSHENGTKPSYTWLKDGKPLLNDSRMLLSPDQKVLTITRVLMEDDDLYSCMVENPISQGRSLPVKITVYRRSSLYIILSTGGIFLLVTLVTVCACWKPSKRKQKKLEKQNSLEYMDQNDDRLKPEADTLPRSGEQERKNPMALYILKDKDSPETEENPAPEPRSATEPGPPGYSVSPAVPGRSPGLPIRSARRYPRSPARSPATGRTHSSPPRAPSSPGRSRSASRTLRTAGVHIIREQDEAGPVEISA
# Columns and labels:
# [1] = target: T1, 2HA-MLC1-P92S (human (by the printed GeneID 23209; the paper does not say the species in words)); assay: co-IP; cell surface immunoprecipitation (cs-IP): anti-GlialCAM Ab bound to live HeLa cells 45 min on ice, unbound Ab washed off, lysis (0.4% NP-40 in co-IP assays), MLC1/GlialCAM complex precipitated, Western blot; signals normalised to precipitated MLC1; for Fig. 7G cells with siUbr1 or siNT and Flag-Ubr1-wt or -CI
# [2] = target: T2, 2HA-MLC1-C326R (human (by the printed GeneID 23209; the paper does not say the species in words)); assay: as above
# [3] = target: T3, 2HA-MLC1-S280L (human (by the printed GeneID 23209; the paper does not say the species in words)); assay: co-IP; total cell IP of the cellular pool of MLC1: Ab added directly to lysates of HeLa cells with siUbr1 or siNT and Flag-Ubr1-wt or -CI; Western blot for chaperones
# [4] = target: T3, 2HA-MLC1-S280L (human (by the printed GeneID 23209; the paper does not say the species in words)); assay: co-IP; cell surface immunoprecipitation (cs-IP): anti-GlialCAM Ab bound to live HeLa cells 45 min on ice, unbound Ab washed off, lysis (0.4% NP-40 in co-IP assays), MLC1/GlialCAM complex precipitated, Western blot; signals normalised to precipitated MLC1; for Fig. 7G cells with siUbr1 or siNT and Flag-Ubr1-wt or -CI
# [5] = target: T3, 2HA-MLC1-S280L (human (by the printed GeneID 23209; the paper does not say the species in words)); assay: co-IP; cs-IP with anti-GlialCAM Ab (as in Fig. 3A) from HA-MLC1-S280L U251N cells treated with siUbr1 or siNT and with or without BafA1; Western blot
# [6] = target: T4, GlialCAM (glial cell adhesion molecule), Flag-tagged; assay: co-IP; cell surface immunoprecipitation (cs-IP): anti-GlialCAM Ab bound to live HeLa cells 45 min on ice, unbound Ab washed off, lysis (0.4% NP-40 in co-IP assays), MLC1/GlialCAM complex precipitated, Western blot; signals normalised to precipitated MLC1; for Fig. 7G cells with siUbr1 or siNT and Flag-Ubr1-wt or -CI
Molecule,binding [1],binding [2],binding [3],binding [4],binding [6],other results
CHIP (C-terminus of Hsc70-interacting protein) (from UniProt Q9UNE7 1-303),binds,binds,,,,
Hsc70 (from UniProt P11142 1-646),binds,binds,binds,binds,,
Hsp40 (DNAJB1) (from UniProt P25685 1-340),binds,binds,binds,binds,,
Hsp90α (90 kDa) (from UniProt P07900 1-732),,,binds,,,
Hsp90β (83.2 kDa) (from UniProt P08238 1-724),,,binds,binds,,
SQSTM1/p62 (from UniProt Q13501 1-440),,,,,,binding [5]: binds

# Now from value to molecule, other results behind:
binding [1],binding [2],binding [3],binding [4],binding [6],Molecule,other results
,,,,binds,"2HA-MLC1 wild type (megalencephalic leukoencephalopathy with subcortical cyst 1) (protein, UniProt Q15049 1-377) MTQEPFREELAYDRMPTLERGRQDPASYAPDAKPSDLQLSKRLPPCFSHKTWVFSVLMGSCLLVTSGFSLYLGNVFPAEMDYLRCAAGSCIPSAIVSFTVSRRNANVIPNFQILFVSTFAVTTTCLIWFGCKLVLNPSAININFNLILLLLLELLMAATVIIAARSSEEDCKKKKGSMSDSANILDEVPFPARVLKSYSVVEVIAGISAVLGGIIALNVDDSVSGPHLSVTFFWILVACFPSAIASHVAAECPSKCLVEVLIAISSLTSPLLFTASGYLSFSIMRIVEMFKDYPPAIKPSYDVLLLLLLLVLLLQAGLNTGTAIQCVRFKVSARLQGASWDTQNGPQERLAGEVARSPLKEFDKEKAWRAVVVQMAQ",
,,,,binds,"2HA-MLC1-C326R (protein, UniProt Q15049 1-377) MTQEPFREELAYDRMPTLERGRQDPASYAPDAKPSDLQLSKRLPPCFSHKTWVFSVLMGSCLLVTSGFSLYLGNVFPAEMDYLRCAAGSCIPSAIVSFTVSRRNANVIPNFQILFVSTFAVTTTCLIWFGCKLVLNPSAININFNLILLLLLELLMAATVIIAARSSEEDCKKKKGSMSDSANILDEVPFPARVLKSYSVVEVIAGISAVLGGIIALNVDDSVSGPHLSVTFFWILVACFPSAIASHVAAECPSKCLVEVLIAISSLTSPLLFTASGYLSFSIMRIVEMFKDYPPAIKPSYDVLLLLLLLVLLLQAGLNTGTAIQRVRFKVSARLQGASWDTQNGPQERLAGEVARSPLKEFDKEKAWRAVVVQMAQ",
,,,,binds,"2HA-MLC1-S280L (protein, UniProt Q15049 1-377) MTQEPFREELAYDRMPTLERGRQDPASYAPDAKPSDLQLSKRLPPCFSHKTWVFSVLMGSCLLVTSGFSLYLGNVFPAEMDYLRCAAGSCIPSAIVSFTVSRRNANVIPNFQILFVSTFAVTTTCLIWFGCKLVLNPSAININFNLILLLLLELLMAATVIIAARSSEEDCKKKKGSMSDSANILDEVPFPARVLKSYSVVEVIAGISAVLGGIIALNVDDSVSGPHLSVTFFWILVACFPSAIASHVAAECPSKCLVEVLIAISSLTSPLLFTASGYLLFSIMRIVEMFKDYPPAIKPSYDVLLLLLLLVLLLQAGLNTGTAIQCVRFKVSARLQGASWDTQNGPQERLAGEVARSPLKEFDKEKAWRAVVVQMAQ",
,,,,binds,"2HA-MLC1-P92S (protein, UniProt Q15049 1-377) MTQEPFREELAYDRMPTLERGRQDPASYAPDAKPSDLQLSKRLPPCFSHKTWVFSVLMGSCLLVTSGFSLYLGNVFPAEMDYLRCAAGSCISSAIVSFTVSRRNANVIPNFQILFVSTFAVTTTCLIWFGCKLVLNPSAININFNLILLLLLELLMAATVIIAARSSEEDCKKKKGSMSDSANILDEVPFPARVLKSYSVVEVIAGISAVLGGIIALNVDDSVSGPHLSVTFFWILVACFPSAIASHVAAECPSKCLVEVLIAISSLTSPLLFTASGYLSFSIMRIVEMFKDYPPAIKPSYDVLLLLLLLVLLLQAGLNTGTAIQCVRFKVSARLQGASWDTQNGPQERLAGEVARSPLKEFDKEKAWRAVVVQMAQ",
